# According to patent US8053186:
# What was measured:
# [1] = biological target: T1, Drosha (endogenous, immunoprecipitated from SEMK2 or PER377 nuclear extracts) (human) (UniProt Q9NRR4); assay: co-IP (restated in the discussion)
# T1 sequence (looked up): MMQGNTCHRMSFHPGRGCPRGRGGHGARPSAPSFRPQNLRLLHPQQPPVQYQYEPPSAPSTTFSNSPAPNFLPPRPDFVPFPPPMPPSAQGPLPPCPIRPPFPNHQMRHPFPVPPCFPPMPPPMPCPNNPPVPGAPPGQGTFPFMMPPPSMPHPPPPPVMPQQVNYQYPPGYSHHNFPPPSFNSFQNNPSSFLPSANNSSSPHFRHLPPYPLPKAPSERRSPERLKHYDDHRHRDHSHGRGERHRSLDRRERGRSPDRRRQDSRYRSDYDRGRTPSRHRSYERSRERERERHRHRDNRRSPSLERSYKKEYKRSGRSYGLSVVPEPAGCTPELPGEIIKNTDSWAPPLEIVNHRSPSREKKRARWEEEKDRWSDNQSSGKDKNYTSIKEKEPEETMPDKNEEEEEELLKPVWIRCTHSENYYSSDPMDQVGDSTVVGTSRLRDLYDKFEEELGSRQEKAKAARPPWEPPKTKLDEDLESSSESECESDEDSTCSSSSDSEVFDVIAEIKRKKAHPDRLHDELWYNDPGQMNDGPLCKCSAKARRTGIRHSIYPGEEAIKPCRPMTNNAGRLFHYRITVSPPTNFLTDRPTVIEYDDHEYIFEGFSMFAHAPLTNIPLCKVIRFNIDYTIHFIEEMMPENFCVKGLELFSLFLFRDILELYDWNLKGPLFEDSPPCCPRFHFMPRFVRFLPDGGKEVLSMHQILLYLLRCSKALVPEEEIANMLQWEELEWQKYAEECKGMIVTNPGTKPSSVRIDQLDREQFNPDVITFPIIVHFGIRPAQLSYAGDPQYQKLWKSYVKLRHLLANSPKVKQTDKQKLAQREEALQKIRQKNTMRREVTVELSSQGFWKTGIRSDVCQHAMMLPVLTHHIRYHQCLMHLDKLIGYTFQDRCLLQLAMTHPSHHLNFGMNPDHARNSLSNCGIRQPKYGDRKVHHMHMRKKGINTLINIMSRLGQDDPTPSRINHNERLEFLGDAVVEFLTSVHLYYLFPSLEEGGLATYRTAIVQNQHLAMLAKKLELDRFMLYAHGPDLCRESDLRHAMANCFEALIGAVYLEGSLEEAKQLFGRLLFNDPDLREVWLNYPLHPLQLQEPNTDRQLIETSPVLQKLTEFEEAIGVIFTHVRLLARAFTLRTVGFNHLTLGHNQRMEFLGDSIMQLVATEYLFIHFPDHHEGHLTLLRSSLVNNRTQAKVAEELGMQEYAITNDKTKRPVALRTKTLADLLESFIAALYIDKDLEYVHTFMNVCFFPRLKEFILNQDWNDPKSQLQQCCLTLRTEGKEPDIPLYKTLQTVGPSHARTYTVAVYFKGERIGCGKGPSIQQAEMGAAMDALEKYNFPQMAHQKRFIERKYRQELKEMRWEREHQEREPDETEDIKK
# [2] = biological target: T1, Drosha (endogenous, immunoprecipitated from SEMK2 or PER377 nuclear extracts) (human); assay: co-IP with anti-Drosha Ab from PER377 nuclear extracts, Western blot
substance,measurement,setting,value
"All1/Af9 fusion protein (endogenous, PER377 cells with t(9;11)) (human)",binding,[1],binds
same,binding,[2],binds

# These are yes or no findings as the source states them, for the method shown. Binding seen in cells or lysates may run through a third protein. A result given as binding can be weak or reduced; the word gives no strength.
